In paper PMC8584173, “The Cytotoxic Effect of Copper (II) Complexes with Halogenated 1,3-Disubstituted Arylthioureas on Cancer and Bacterial Cells” (International Journal of Molecular Sciences, 2021):

How the values were obtained:
Assay type in all cases: cell-based, Homo sapiens
[1] = tested on: Glutathione S-transferase A1 (GSTA1_HUMAN); test: LC–MS proteome analysis, GSTA1; settings: SW620, 24 h, IC50 concentration; control 91232; Table S1
Experimental: (§1) Enzymes involved in oxidoreductive potential were analyzed in the cell lysates obtained after treatment cells with selected conjugates for 24 h. Cells were washed with phosphate-buffered saline (PBS) and harvested, then centrifuged at 1000× g for 10 min. Then, lysis buffer (containing protease inhibitor, 1% RIPA Lysis and Extraction Buffer (ThermoFisher)) and cold PBS were added, and samples were sonicated three times in ice bath. Next, the cell lysates were centrifuged at 14,000× g at 4 °C for 15 min, and then supernatants were stored at […] before use. Protein concentration was measured by the Bradford method.
(§2) Normalized protein concentrations (5 µg) from cell lysate were precipitated by ice cold (–20 °C) acetonitrile (ACN, Merck, in ratio 1:4). Then, samples were centrifuged (–9 °C, 30 min., 18,000× g), the supernatant was discarded and ACN excess was evaporated using a vacuum centrifuge (5 min., room temp.). Protein pellet was dissolved in 40 mM ammonium bicarbonate. An amount of 500 mM dithiothreitol (DTT, with final concentration 20 mM) and 1 M iodoacetamide (IAA, with final concentration 40 mM) were used for reduction and alkylation processes. After 16 h of incubation in 37 °C with Trypsin Gold (Promega), digested protein samples were diluted with 0.1% formic acid (ThermoFisher) and centrifuged (+2 °C, 30 min, 18,000× g).
LC–MS analysis was carried out with the use of nanoUHPLC (nanoElute, Bruker) coupled by CaptiveSpray (Bruker) to ESI-Q-TOF mass spectrometer (Compact, Bruker). Two-column separation method was used, i.e., pre-column (300 µm × 5 mm, C18 PepMap 100, 5 µm, 100Å, Thermo Scientific) and Aurora separation column with CSI fitting (75 µm × 250 mm, C18 1.6 µm) in gradient 2% B to 35% B in 90 min with the 300 nL/min flow rate. Mobile phases (A) 0.1% formic acid in water and (B) 0.1% formic acid in ACN were used.
(§3) Sample ionizations were performed at a gas flow of 3.0 L/min, temperature of 150 °C and voltage of the capillary at 1600 V. The quadrupole energy was fixed to 5.0 eV and collision chamber energy 7.0 eV, with an ion transfer time of 90 µs. The ions were analyzed in the positive polarity mode in the range 150–2200 m/z, with the acquisition frequency of the 1 Hz spectrum, as well as with the autoMS/MS system.
The collected spectra were analyzed and calibrated using DataAnalysis software (Bruker) and then identified in ProteinScape (Bruker) by the MASCOT server. Protein identification was conducted using the online SwissProt and NCBIprot databases, and their references and biological significance were identified using Reactome.org, String.org and KEGG.

[2] = tested on: Glutathione reductase, mitochondrial (GSHR_HUMAN); test: LC–MS proteome analysis, GSHR; settings: PC3, 24 h, IC50 concentration; Table S1
Experimental: as §1, §2
LC–MS analysis was carried out with the use of nanoUHPLC (nanoElute, Bruker) coupled by CaptiveSpray (Bruker) to ESI-Q-TOF mass spectrometer (Compact, Bruker). […]
as §3
(§4) The collected spectra were analyzed and calibrated using DataAnalysis software (Bruker) and then identified in ProteinScape (Bruker) by the MASCOT server. […]

[3] = tested on: Thioredoxin-dependent peroxide reductase, mitochondrial (PRDX3_HUMAN); test: LC–MS proteome analysis, PRDX3; settings: PC3, 24 h, IC50 concentration; Table S1
Experimental: as §1
Normalized protein concentrations (5 µg) from cell lysate were precipitated by ice cold (–20 °C) acetonitrile (ACN, Merck, in ratio 1:4). […]
as §3, §4

Structure (SMILES) | Protein intensity, mean (GSTA1) [1] | Protein intensity, mean (GSHR) [2] | Protein intensity, mean (PRDX3) [3]
O=[N+]([O-])c1cc([N+]2=C(Nc3ccccc3Br)[S][Cu-2]23[S]C(Nc2ccccc2Br)=[N+]3c2ccc(Cl)c([N+](=O)[O-])c2)ccc1Cl [Compound 1, Copper (II) complex with 1-(2-bromophenyl)-3-(4-chloro-3-nitrophenyl)thiourea] | 45787 |  | 
O=[N+]([O-])c1cc([N+]2=C(Nc3ccc(Br)cc3)[S][Cu-2]23[S]C(Nc2ccc(Br)cc2)=[N+]3c2ccc(Cl)c([N+](=O)[O-])c2)ccc1Cl [Compound 3, Copper (II) complex with 1-(4-bromophenyl)-3-(4-chloro-3-nitrophenyl)thiourea] | 41221 | 93164 | 
O=[N+]([O-])c1cc([N+]2=C(Nc3ccccc3F)[S][Cu-2]23[S]C(Nc2ccccc2F)=[N+]3c2ccc(Cl)c([N+](=O)[O-])c2)ccc1Cl [Compound 7, Copper (II) complex with 1-(2-fluorophenyl)-3-(4-chloro-3-nitrophenyl)thiourea] | 33213 | 96786 | 94596
O=[N+]([O-])c1cc([N+]2=C(Nc3ccc(I)cc3)[S][Cu-2]23[S]C(Nc2ccc(I)cc2)=[N+]3c2ccc(Cl)c([N+](=O)[O-])c2)ccc1Cl [Compound 8, Copper (II) complex with 1-(4-iodophenyl)-3-(4-chloro-3-nitrophenyl)thiourea] | 49567 | 108221 | 189285
